Measurements from PubChem BioAssay (EPA / NIEHS).
Where “and” joins values, the source holds several entries; their conditions need not be identical. Identical values can stand only once. The inconclusive results got no clear call from the source; some entries with a clear call stand among them for comparison. Potencies beside an inconclusive call are fits to weak or partial responses and may not hold up. Calls of active or inactive are those of the source. The calls were made as follows: active = hit-call score of the fitted dose curve at least 0.9, where 1 is the maximum; inconclusive = response in the unintended direction; inactive = score below 0.9.

Assay: CLD_ACTIN_48hr: CellzDirect (CLD) Gene Expression Assay for Baseline Control (Actin) at 48 hours (AID 2283702)
Description: CLD_48hr is a cell-based, multiplexed-readout assay that uses hepatocyte, a human liver primary cell, with measurements taken at 48 hours after chemical dosing in a 96-well plate.CLD_ACTIN_48hr is one of 16 assay component(s) measured or calculated from the CLD_48hr assay. It is designed to make measurements of mRNA induction, a form of inducible reporter, as detected with chemiluminescence signals by Quantitative Nuclease Protection Assay (qNPA) technology.Data from the assay component CLD_ACTIN_48hr was analyzed at the endpoint, CLD_ACTIN_48hr, in the positive analysis fitting direction relative to DMSO as the negative control and baseline of activity. Using a type of inducible reporter, gain-of-signal activity can be used to understand changes in the reporter gene as they relate to the gene ACTA1. Furthermore, this assay endpoint can be referred to as a secondary readout, because this assay has produced multiple assay endpoints where this one serves a background control function. To generalize the intended target to other relatable targets, this assay endpoint is annotated to the background measurement intended target family, where subfamily is baseline control.
Human hepatocyte cultures were treated daily for two consecutive days with fresh dosing solutions containing appropriate concentrations of the 320 ToxCast chemicals (chemical identities were blinded to CellzDirect and other ToxCast collaborators), vehicle control (0.2% DMSO), and positive control inducers as summarized in Table 1. Due to the large number of treatment groups and chemicals examined, the ToxCast chemicals were divided into two groups (spanning two independent cultures of hepatocytes from separate donor preparations (Hu778: ToxCast plates 1 and 2; Hu776: ToxCast plates 3 and 4). Each preparation of human hepatocyte cultures was treated with respective vehicle control, medium only control, set of six positive controls/reference chemicals for the five hepatic receptor pathways, and a subset of eight of the ToxCast chemicals (indoxacarb, pyrithiobac-sodium, norflurazon, cyhalofop-butyl, methomyl, thiram, acetochlor, and propiconazole). These replicate data, coupled with internal replicates designed within the blinded ToxCast chemical library, provided additional data to evaluate interindividual differences between hepatocyte preparations and their potential impact on chemical profiles.Cell morphology and integrity were evaluated using phase-contrast microscopy as an indicator of hepatocyte cell health (Tyson & Green, 1987). Cultures for each treatment group (i.e., media, vehicle [0.2% DMSO], positive control inducers [multiple concentrations], and the ToxCast chemicals [multiple concentrations]) were observed and cell morphology was assessed relative to vehicle control cultures at each harvest time point (0, 6, 24, or 48 h). […] Images were evaluated at the conclusion of the study to assess changes in cell integrity and account for the effects of chemical exposure on uncharacteristic changes in concentration-dependent gene expression profiles. The results from these determinations of apparent cytotoxicity were annotated (yes/no) alongside the corresponding qNPA data for reference.At the conclusion of each treatment period, hepatocyte cultures (96-well) were washed with 1 volume of HBSS, lysed by addition of 25 ul ArrayPlate lysis buffer (HTG, Tucson, AZ), and 70 ul/well of Denaturation Oil, denatured by incubation at 95C for 10 min, and frozen at approximately -70C until analysis by nuclease protection assay (qNPA) (Roberts et al., 2007). For qNPA analysis, cell lysates were thawed at 50C for approximately 30 min, qNPA probes were added, and samples were incubated at 95C for 10 min to begin the detection process by denaturing the target RNA, dissociating the duplexes and secondary structure hybridization. At the conclusion of the hybridization period, S1 nuclease reagent was added to each sample to digest all nonprotected nucleotides at 50C for 60-90 min. […]

| Structure (SMILES) | outcome | AC50 |
| --- | --- | --- |
| O=c1ccc(=O)[nH][nH]1 | inactive |  |
| CCCCOC(=O)c1ccccc1C(=O)O |  | inconclusive: 20 µM |
| CC(Oc1cccc(Cl)c1)C(=O)O (stereo not given) | inactive |  |
| CN(C)C(=O)Nc1cccc(C(F)(F)F)c1 |  | inconclusive: 3.1 µM |
| CCCCNC(=O)n1c(NC(=O)OC)nc2ccccc21 |  | inconclusive: 20 µM |
| CC(C1CC1)C(O)(Cn1cncn1)c1ccc(Cl)cc1 (stereo not given) |  | inconclusive: 3.71 µM |
| CCOC1Oc2ccc(OS(C)(=O)=O)cc2C1(C)C (stereo not given) |  | inconclusive: 3.97 µM |
| N#CN | inactive |  |
| COc1cc(Cl)c(OC)cc1Cl |  | inconclusive: 20 µM |
| CCOP(=O)(NC(C)C)Oc1ccc(SC)c(C)c1 (stereo not given) |  | inconclusive: 20 µM |
| CCC(C)n1c(=O)[nH]c(C)c(Br)c1=O (stereo not given) |  | inconclusive: 13.8 µM |
| CC(COc1ccc(Oc2ccccc2)cc1)Oc1ccccn1 (stereo not given) |  | inconclusive: 20 µM |
| COC(=O)N(OC)c1ccccc1COc1ccn(-c2ccc(Cl)cc2)n1 |  | inconclusive: 1.9 µM |
| CCCC1COC(Cn2cncn2)(c2ccc(Cl)cc2Cl)O1 (stereo not given) |  | inconclusive: 20 µM |
| O=C(Nc1ccccc1)Nc1ccnc(Cl)c1 |  | inconclusive: 7.6 µM |
| O=c1n(Cl)c(=O)n(Cl)c(=O)n1Cl |  | inconclusive: 20 µM |
| CCc1cccc(C)c1N(C(=O)CCl)C(C)COC (stereo not given) |  | inconclusive: 3.97 µM |
| Fc1ccc(Oc2ccnc3cc(Cl)cc(Cl)c23)cc1 |  | inconclusive: 3.97 µM |
| OC(c1ccc(Cl)cc1)(c1cncnc1)c1ccccc1Cl (stereo not given) | inactive |  |
| Clc1cccc(C(Cl)(Cl)Cl)n1 | inactive |  |

| Structure (SMILES) | outcome | AC50 |
| --- | --- | --- |
| CCOC(=O)C(Cl)Cc1cc(-n2nc(C)n(C(F)F)c2=O)c(F)cc1Cl (stereo not given) |  | inconclusive: 20 µM |
| COP(=O)(OC)O/C(C)=C/C(=O)N(C)C |  | inconclusive: 2.89 µM |
| C=CCC1=C(C)[C@@H](OC(=O)[C@@H]2[C@@H](C=C(C)C)C2(C)C)CC1=O |  | inconclusive: 9.48 µM |
| COP(=O)(OC)C(O)C(Cl)(Cl)Cl (stereo not given) | inactive |  |
| CCOP(=S)(OCC)SCCSCC |  | inconclusive: 4.75 µM |
| CC(C)Nc1nc(Cl)nc(NC(C)C)n1 |  | inconclusive: 20 µM |
| O=C(O)c1c(Cl)ccc2cc(Cl)cnc12 |  | inconclusive: 20 µM |
| CCCCSP(=O)(SCCCC)SCCCC |  | inconclusive: 15.5 µM |
| CCOC(=O)CC(SP(=S)(OC)OC)C(=O)OCC (stereo not given) | inactive |  |
| C#CCC1=C(C)C(OC(=O)C2C(C=C(C)C)C2(C)C)CC1=O (stereo not given) |  | inconclusive: 20 µM |
| CCCN(CC)CC1COC2(CCC(C(C)(C)C)CC2)O1 (stereo not given) |  | inconclusive: 13.1 µM |
| CCCCN(CC)c1c([N+](=O)[O-])cc(C(F)(F)F)cc1[N+](=O)[O-] |  | inconclusive: 37 µM |
| COP(=O)(NC(C)=O)SC (stereo not given) |  | inconclusive: 20 µM |
| CCOP(=O)(OCC)Oc1cc(C)nc(C(C)C)n1 |  | inconclusive: 20 µM |
| O=C(O)c1nc(Cl)ccc1Cl |  | inconclusive: 20 µM and inconclusive: 3.97 µM |
| CCOP(=O)(SC(C)CC)N1CCSC1=O (stereo not given) |  | inconclusive: 3.97 µM |
| Cc1ccc(N=CN(C)C=Nc2ccc(C)cc2C)c(C)c1 |  | inconclusive: 20 µM |
| CC(C)=CC1C(C(=O)OCc2coc(Cc3ccccc3)c2)C1(C)C (stereo not given) |  | inconclusive: 20 µM |
| CN(C)[C@@H]1C(=O)C(C(N)=O)=C(O)[C@@]2(O)C(=O)C3=C(O)c4c(O)cccc4[C@@](C)(O)[C@H]3[C@H](O)[C@@H]12 |  | inconclusive: 3.97 µM |
| CS/C(C)=N/OC(=O)N(C)SN(C)C(=O)O/N=C(\C)SC | inactive |  |
